Measured values: patent EP4775675A1
Positions count from the first letter of the chain named. Results are given in words; binding and its absence hold for the method and conditions named. Some entries that bind do so weakly or less than the wild type. One block for each binder: values may come before it.

Sequences of proteins named here, by UniProt entry; tags and fusion partners are left off.
UniProt Q8WTT0: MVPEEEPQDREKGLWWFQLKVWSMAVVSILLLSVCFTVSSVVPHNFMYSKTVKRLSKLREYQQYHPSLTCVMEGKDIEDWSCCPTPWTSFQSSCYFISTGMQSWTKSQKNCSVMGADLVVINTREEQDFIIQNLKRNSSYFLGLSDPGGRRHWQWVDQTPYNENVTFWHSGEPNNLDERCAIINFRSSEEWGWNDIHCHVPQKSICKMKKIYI

Columns and labels:
[1] = molecular target: cynomolgus monkey BDCA-2 on cells (Jurkat-cynoBDCA-2 cells; cynomolgus monkey pDCs) (cynomolgus monkey); assay: flow cytometry on Jurkat-cynoBDCA-2 cells
[2] = molecular target: human BDCA-2 on cells (Jurkat-hBDCA-2 cells; human pDCs; human PBMCs) (human) (UniProt Q8WTT0); assay: flow cytometry on Jurkat-hBDCA-2 cells

binding [1]: binds
B1: 17G6A2 (murine hybridoma monoclonal antibody) (antibody, V domains shown)
VH: EVQLVESGGDLVKPGGSLKLSCAASGFTFSSYGMSWVRQTPDKRLEWVATISSGDSYTYYPDSVKGRFTISRDNAKNTLYLQMSSLKSEDTAMYYCARQLYYSYGYYFDYWGQGTTLTVSS
VL: DIVLTQSPASLAVSLGQRATISCRASESVSFHGTHLMHWYQQKPGQPPKLLIYAASNLESGVPARFSGSGSETDFTLNIHPVEEEDAATYFCQQSIEDPPTFGGGTKLEIK

binding [2]: binds
binding [1]: binds
B2: 164C11B8_hzH1L1_hIgG1 (antibody, V domains shown)
VH: EVQLLESGGGLVQPGGSLRLSCAASGFTFSTYTMSWVRQAPGKGLEWVSTINSGGDNTYYPDSVKGRFTISRDNSKNTLYLQMNSLRAEDTAVYYCATYRPYYYGSVLDYWGQGTTVTVSS
VL: DIVMTQSPDSLAVSLGERATINCKASQSVDYDGNSYVNWYQQKPGQPPKLLIYGASNLESGVPDRFSGSGSGTDFTLTISSLQAEDVAVYYCQQSDEDPWTFGGGTKVEIKR

binding [2]: binds
binding [1]: binds
B3: 164C11B8_hzH3L1_hIgG1 (antibody, V domains shown)
VH: B2 VH with F27I, S49A
VL: B2 VL

binding [2]: binds
binding [1]: binds
B4: 164C11B8_hzH4L1_hIgG1 (antibody, V domains shown)
VH: B2 VH with F27I, G44R, S49A
VL: B2 VL

binding [2]: binds
binding [1]: binds
B5: 164C11B8_hzH2L1_hIgG1 (antibody, V domains shown)
VH: B2 VH with S49A
VL: B2 VL

binding [2]: binds
binding [1]: binds
B6: 17G6A2_hzH1L8_hIgG1 (antibody, V domains shown)
VH: EVQLVESGGGLVKPGGSLRLSCAASGFTFSSYGMSWVRQAPGKGLEWVSTISSGDSYTYYPDSVKGRFTISRDNAKNSLYLQMNSLRAEDTAVYYCARQLYYSYGYYFDYWGQGTTVTVSS
VL: DIVLTQSPASLAVSPGQRATITCRASESVSFHGTHLMHWYQQKPGQPPKLLIYAASNLESGVPARFSGSGSETDFTLTINPVEANDAANYYCQQSIEDPPTFGGGTKVEIKR

binding [2]: binds
binding [1]: binds
B7: 17G6A2_hzH2L5_hIgG1 (antibody, V domains shown)
VH: B6 VH with S49A
VL: B6 VL with E72G, N85E, A87T

binding [2]: binds
binding [1]: binds
B8: 17G6A2_hzH2L7_hIgG1 (antibody, V domains shown)
VH: B6 VH with S49A
VL: B6 VL with N85E, A87T

binding [2]: binds
binding [1]: binds
B9: 17G6A2_hzH2L8_hIgG1 (antibody, V domains shown)
VH: B6 VH with S49A
VL: B6 VL

binding [2]: binds
binding [1]: binds
B10: 17G6A2_hzH3L8_hIgG1 (antibody, V domains shown)
VH: B6 VH with G44R, S49A
VL: B6 VL

binding [2]: binds
binding [1]: binds
B11: 17G6A2_hzH2L6_hIgG1 (antibody, V domains shown)
VH: B6 VH with S49A
VL: B6 VL with E72G

binding [2]: binds
binding [1]: binds
B12: 17G6A2_hzH3L6_hIgG1 (antibody, V domains shown)
VH: B6 VH with G44R, S49A
VL: B6 VL with E72G

binding [2]: binds
binding [1]: binds
B13: 17G6A2_hzH3L5_hIgG1 (antibody, V domains shown)
VH: B6 VH with G44R, S49A
VL: B6 VL with E72G, N85E, A87T

binding [2]: binds
binding [1]: binds
B14: 17G6A2_hzH3L7_hIgG1 (antibody, V domains shown)
VH: B6 VH with G44R, S49A
VL: B6 VL with N85E, A87T

binding [1]: binds
B15: 164C11B8 (murine hybridoma monoclonal antibody) (antibody, V domains shown)
VH: DVILVESGGGLVKPGGSLKLSCAASGITFSTYTMSWLRQTPEKRLEWVATINSGGDNTYYPDSVKGRFTISRDNAKNNLYLQMSSLKSEDTALYYCATYRPYYYGSVLDYWGQGTTLTVSS
VL: DIVLTQSPASLAVSLGQRATISCKASQSVDYDGNSYVNWYQQKPGQPPKLLIYGASNLESGIPDRFSGSGSGTDFTLNIHPVEEEDGATYYCQQSDEDPWTFGGGTKLEIR
